The list shows a part of the results. These are further read-outs of the screen, such as a control signal, another cell line or another target. No call is given for them. Most of these compounds were active or inconclusive in the main read-out, so they are no random draw. Words in brackets tell the shape of the fitted curve; partial curves, single points and poor fits give uncertain potencies.
Assay: qHTS Assay to Find Inhibitors of Chronic Active B-Cell Receptor Signaling
Details: ABC-DLBCL IkBa-CBG/CBR reporter, luminescence ratio (green luciferase fused to IkBa over red control in TMD8 lymphoma cells), 4 h
Procedure, shortened: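 TMD8 human ABC-DLBCL cells with doxycycline-inducible IκBα–green luciferase fusion and unfused red luciferase, in 0.5% FBS medium; compounds up to 46 uM, 4 h at 37C. Green/red luminescence ratio, filter-overlap corrected, fitted to concentration-response curves.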

[1] = measured here: CBR red luminescence, cell number
[2] = measured here: IkBa-CBG green luminescence

| SMILES | AC50 [1] | AC50 [2] |
| --- | --- | --- |
| CC(Cc1cccs1)NC(=O)Nc1ccc(Cl)c(Cl)c1 (stereo unspecified) | 9.2 µM [falling, single point] |  |
| COCCOC(=O)c1c(NC(=O)CN2CCOCC2)sc(C(N)=O)c1C | 3.66 µM [falling, single point] |  |
| COc1cccc(C(=O)NC2CCCc3c2cnn3-c2ccc(C)c(C)c2)c1OC (stereo unspecified) | 1.12 µM [falling, partial curve, poor fit] |  |
| CC(C)=CCC/C(C)=C/C=N/NC(=O)c1cccc([N+](=O)[O-])c1 | 7.31 µM [rising, partial curve, poor fit] |  |
| COc1ccccc1NCC(=O)N1CCN(S(=O)(=O)c2ccccc2)CC1 | 20.6 µM [falling, partial curve] |  |
| Cc1cccc(NC(=O)CCc2ccc(S(=O)(=O)NC3CCCCC3)cc2)c1 | 2.31 µM [falling, full curve] |  |
| O=C(c1ccco1)N1CCN(c2nc3ccccc3n3nnnc23)CC1 | 1.84 µM [falling, full curve, poor fit] |  |
| CCOC(=O)c1c(N2C(=O)CC(Sc3ccccc3C(=O)O)C2=O)sc(C)c1C (stereo unspecified) | 20 µM [falling, single point] | 12.6 µM [rising, partial curve, poor fit] |
| Clc1ccc(-c2nnc(-c3ccccc3)o2)cn1 | 1.58 µM [rising, full curve, poor fit] |  |
| O=P(Cc1ccccc1)(c1ccccc1)c1ccccc1 | 6.51 µM [falling, single point] |  |
| O=C(Nc1nnc(-c2ccccc2Cl)s1)c1ccccc1F | 5.01 µM [falling, partial curve, poor fit] |  |
| COc1ccccc1/C=N/Nc1nccnc1Cl | 18.4 µM [falling, single point] |  |
| Cc1ccc(S(=O)(=O)CCSc2nccn2C)cc1 | 20 µM [rising, single point] |  |
| Cc1ccc2c(c1)sc1nc(=O)n(-c3ccc(Cl)cc3)c(=O)n12 | 35.5 µM [rising, single point] |  |
| Cc1[nH]n(-c2ccccc2)c(=O)c1C1(C(F)(F)F)C(=O)N(c2ccc(F)cc2)C2=C1C(=O)CC(C)(C)C2 (stereo unspecified) | 11.6 µM [falling, partial curve, poor fit] |  |
| O=C(NNC1=NC2(CCCC2)Cc2ccccc21)c1cccnc1 | 35.5 µM [rising, single point] |  |
| CCOc1ccc(-c2csc(NC(=O)c3cccc(N4C(=O)CCC4=O)c3)n2)cc1 | 35.5 µM [rising, single point] |  |
| CN(C(=O)c1ccccc1OCc1ccc(Cl)cc1)c1ccccc1 | 5.62 µM [rising, single point] |  |
| O=C(NCc1cccs1)C1CCC(CNS(=O)(=O)c2cccc3nsnc23)CC1 (stereo unspecified) | 29.1 µM [rising, single point] |  |
| CCc1cc(=O)[nH]c(SCC(=O)N2CCOCC2)n1 | 0.517 µM [rising, partial curve, poor fit] |  |

Structural class, the entries above containing a Cl atom

| SMILES | AC50 [1] | AC50 [2] |
| --- | --- | --- |
| CC(Cc1cccs1)NC(=O)Nc1ccc(Cl)c(Cl)c1 (stereo unspecified) | 9.2 µM [falling, single point] |  |
| Clc1ccc(-c2nnc(-c3ccccc3)o2)cn1 | 1.58 µM [rising, full curve, poor fit] |  |
| O=C(Nc1nnc(-c2ccccc2Cl)s1)c1ccccc1F | 5.01 µM [falling, partial curve, poor fit] |  |
| COc1ccccc1/C=N/Nc1nccnc1Cl | 18.4 µM [falling, single point] |  |
| Cc1ccc2c(c1)sc1nc(=O)n(-c3ccc(Cl)cc3)c(=O)n12 | 35.5 µM [rising, single point] |  |
| CN(C(=O)c1ccccc1OCc1ccc(Cl)cc1)c1ccccc1 | 5.62 µM [rising, single point] |  |

Additional compounds follow:

| SMILES | AC50 [1] | AC50 [2] |
| --- | --- | --- |
| CCc1nnc(NC(=O)CSc2nc(C3CCCCC3)nc3ccccc23)s1 | 0.794 µM [falling, full curve] |  |
| O=C(CN1C(=O)c2ccccc2C1=O)NC1CCC(O)CC1 (stereo unspecified) | 29.1 µM [rising, single point] |  |
| CCOc1ccccc1NC(=O)CCc1nnc2ccc(N3CCC(C)CC3)nn12 | 35.5 µM [falling, single point] |  |
| N=c1n(CCO)c2ccccc2n1Cc1ccccc1Cl | 29.1 µM [falling, single point] |  |
| COc1ccc(CCC(=O)Nc2c(C)n(C)n(-c3ccccc3)c2=O)cc1 | 22.4 µM [rising, partial curve, poor fit] |  |
| COc1ccc2c(c1)-c1nc(NC(=O)c3ccco3)sc1CC2 | 0.82 µM [rising, full curve, poor fit] |  |
| CCC1=NC(c2ccccc2OC)N(O)C1(C)C (stereo unspecified) | 12.6 µM [rising, partial curve, poor fit] |  |
| COc1cc(NC(=O)c2ccc(Cl)cc2)c(OC)cc1NC(=O)CN1CCOCC1 | 35.5 µM [rising, single point] |  |
| O=C(NC1CC1)C1=C[C@H](C2CCCCC2)C[C@H](OCCCCO)O1 | 3.98 µM [rising, full curve, poor fit] |  |
| CCOC(=O)C1=CN(Cc2ccco2)S(=O)(=O)N(C)C1CC (stereo unspecified) | 0.651 µM [rising, partial curve, poor fit] |  |
| CCc1nnc(NC(=O)Cn2nc(-c3ccc(OC)c(OC)c3)ccc2=O)s1 | 0.731 µM [rising, partial curve, poor fit] |  |
| COc1ccc(-c2cc(C(F)(F)F)c(C#N)c(SCC(=O)Nc3ccc(C)cc3)n2)cc1 | 0.092 µM [falling, full curve, poor fit] |  |
| O=C(Nc1ccc(F)cc1)N(Cc1cccs1)Cc1cc2cc3c(cc2[nH]c1=O)OCO3 | 6.51 µM [falling, partial curve, poor fit] |  |
| O=C(Nc1nnc(-c2cccs2)o1)c1ccco1 | 6.51 µM [falling, partial curve, poor fit] |  |
| CN(C(=O)COC(=O)c1ccccc1Nc1ccccc1)C1CCS(=O)(=O)C1 (stereo unspecified) | 15.8 µM [falling, partial curve, poor fit] |  |
| O=C1C(Cl)=C(N2CCCCCC2)C(=O)N1c1ccc(Cl)cc1 | 22.4 µM [falling, single point] |  |
| COc1cccc(/C=C/C(=O)Nc2cccc(C(C)=O)c2)c1OC | 11.2 µM [falling, partial curve, poor fit] |  |
| CCOC(=O)c1[nH]c(COC(=O)c2ccccc2NC(=O)c2ccco2)c(C(=O)OCC)c1C | 25.1 µM [falling, single point] |  |
| COc1ccc2[nH]cc(CCNC(=O)CC[C@H]3O[C@@H](n4cc(C)c(=O)[nH]c4=O)C[C@@H]3O)c2c1 | 16.4 µM [rising, partial curve, poor fit] |  |
| CCc1ccc(NC(=O)C(C)OC(=O)/C=C/c2ccc(O)c(OC)c2)cc1 (stereo unspecified) |  | 18.4 µM [falling, partial curve] |

From PubChem BioAssay AID493014 (National Center for Advancing Translational Sciences (NCATS), 2011)
